Source: patent US11884750B2, “Cationic cell penetrating peptides and the use thereof” (CELLTROY CO., LTD., priority 2021, dated 2024)
Some entries share one result that the patent states for a list of compounds.

Assays:
Type in all cases: cell-based
HeLa cell line = assay: Cell penetration efficiency using cervical cancer cells; details: 4 μM FITC-conjugated CPP, one hour
Procedure: (§1) Subsequently, to confirm whether the CPPs according to the present invention show excellent cell permeability into different types of cells/tissues, various tissue-derived cells were treated with biologically active molecule-conjugated CPPs to compare its delivery capacity with TAT. As in the previous examples, each cell was aliquoted in a plate at an appropriate density, and cultured in a 10% FBS-added medium under a condition of 37° C. and 5% CO2 for 24 hours. Subsequently, the cells were treated with 4 μM each of FITC-conjugated CPP or FITC-conjugated TAT and incubated for one hour. After the completion of the incubation, the cells were transferred to a sterile tube using 0.25% trypsin and centrifuged to remove the medium. Afterward, the cells were washed with 500 μL of D-PBS twice to completely remove the medium, and finally, resuspended in 400 μL of D-PBS and intracellular fluorescence was measured by flow cytometry (FACSCanto II).

monocytes = assay: Cell penetration efficiency using monocytes; details: 4 μM FITC-conjugated CPP, one hour
Procedure: as §1

macrophages = assay: Cell penetration efficiency using macrophages; details: macrophages differentiated from THP1 cells, 4 μM FITC-conjugated CPP, one hour
Procedure: as §1, with “II). Macrophages were used by inducing differentiation from THP1 cells. Specifically, the THP-1 cells were aliquoted on a cover glass laid on a 24-well plate to have a density of 6×10^4 cells/well, and after the addition of 100 ng/mL of phorbol 12-myristate 13-acetate (PMA), the cells were incubated for 48 hours to induce the differentiation into macrophages. After 48 hours, the cells were washed with Dulbecco's phosphate buffered saline (DPBS) to perform an experiment.” for “II).”

HaCAT cells = assay: Cell penetration efficiency in human epidermal (skin) cells, 4 μM, flow cytometry; details: 4 μM FITC-conjugated CPP, one hour
Procedure: The cell penetration efficiency of the cationic CPPs selected in Example 1 was evaluated using human epidermal cells. In further detail, HaCAT cells, which is a human epidermal cell line, were seeded in 24-well plates to have a cell density of 1×10^7 cells/well, and cultured in 10% FBS-added DMEM under conditions of 37° C. and 5% CO2 for 24 hours. Subsequently, the cells were treated 4 μM each of the FITC-conjugated CPP or FITC-conjugated TAT, and incubated for one hour. After the termination of the incubation, the cells were transferred to a sterile tube using 0.25% trypsin, and the medium was removed through centrifugation. Afterward, the cells were washed with 500 μL of D-PBS twice to completely remove the medium, and finally, resuspended in 400 μL of D-PBS and intracellular fluorescence was measured by flow cytometry (FACSCanto II).
(§2) To evaluate the cell penetration efficiency of the additionally selected cationic CPPs, an experiment was conducted using human epidermal cells or human neuroblastoma cells. In further detail, HaCAT cells, which is a human epidermal cell line, or SH-SYSY cells, which is a human neuroblastoma cell line, were seeded in 24-well plates to have a cell density of 1×10^7 cells/well and cultured in 10% FBS-added DMEM under conditions of 37° C. and 5% CO2 for 24 hours. In addition, the cells were treated with 4 μM each of FITC-conjugated peptides and FITC-conjugated TAT for one hour. After the completion of the culture, the cells were transferred to a sterile tube using 0.25% trypsin and centrifuged to remove the medium. Afterward, the cells were washed with 500 μL of D-PBS twice to completely remove the medium, and finally, resuspended in 400 μL of D-PBS and intracellular fluorescence was measured by flow cytometry (FACSCanto II).
as §1

HDF cell line = assay: Cell penetration efficiency in skin cells (HDF); details: 4 μM FITC-conjugated CPP, one hour
Procedure: as §1

SNU-46 cell line = assay: Cell penetration efficiency using laryngeal cells; details: SNU-46 laryngeal cells, 4 μM FITC-conjugated CPP, one hour
Procedure: as §1

SH-SY5Y cells = assay: Cell penetration efficiency in human neuroblastoma cells, 4 μM, flow cytometry; details: 4 μM FITC-conjugated CPP, one hour
Procedure: The cell penetration efficiency of the cationic CPPs selected in Example 1 was evaluated in neuroblastoma. In further detail, SH-SYSY cells, which is a human neuroblastoma cell line, were seeded in 24-well plates to have a cell density of 1×10^7 cells/well, and cultured in 10% FBS-added DMEM under conditions of 37° C. and 5% CO2 for 24 hours. In addition, the cells were treated with 4 μM each of FITC-conjugated CPPs (C12, C14, C16, C31, C52, and C67), or FITC-conjugated TAT, and incubated for one hour. After the termination of the incubation, the cells were transferred to a sterile tube using 0.25% trypsin and centrifuged to remove the medium. Afterward, the cells were washed with 500 μL of D-PBS twice to completely remove the medium, and finally, resuspended in 400 μL of D-PBS and intracellular fluorescence was measured by flow cytometry (FACSCanto II).
as §2, §1

HepG2 cell line = assay: Cell penetration efficiency using liver cells; details: 4 μM FITC-conjugated CPP, one hour
Procedure: as §1

HT1080 cell line = assay: Cell penetration efficiency using connective tissue (fibrosarcoma) cells; details: 4 μM FITC-conjugated CPP, one hour
Procedure: as §1

A-427 cell line = assay: Cell penetration efficiency using lung cells; details: A-427 lung cells, 4 μM FITC-conjugated CPP, one hour
Procedure: as §1

HEK293T cell line = assay: Cell penetration efficiency using kidney cells; details: 4 μM FITC-conjugated CPP, one hour
Procedure: as §1

Measured: cell permeability, fold of TAT

MKRLLKVVRRRRRP [C201]
≥ 2 fold: HeLa cell line

RPALKQRRWRRKKK [C117]
≥ 2 fold: monocytes

AARIRALRRRRRRP [C72]
≥ 2 fold: macrophages | monocytes | HaCAT cells

ALVLLRRRRRDRKP [C14]
not listed: monocytes | macrophages | HEK293T cell line
≥ 2 fold: all other assays above

IPLRRLMRRARRHR [C112]
≥ 2 fold: monocytes | HaCAT cells

WPRRRLRLRHRARR [C113]
not listed: macrophages | HT1080 cell line | A-427 cell line
≥ 2 fold: all other assays above

SRRRLRRFLRRIAP [C185]
≥ 2 fold: HDF cell line | HeLa cell line | SH-SY5Y cells | HEK293T cell line | monocytes

ARLRVILRRRHPRR [C95]
≥ 2 fold: HDF cell line | SNU-46 cell line | SH-SY5Y cells | HepG2 cell line | monocytes | HaCAT cells

KPRKKKKKRKNKKI [C12]
≥ 2 fold: HDF cell line | SNU-46 cell line | HepG2 cell line | HEK293T cell line | HT1080 cell line | A-427 cell line

RPLVRRRLRRAVRR [C226]
≥ 2 fold: HeLa cell line | macrophages | monocytes

IRAKKKKRRRKKKP [C31]
≥ 2 fold: HDF cell line | SNU-46 cell line | HeLa cell line | macrophages | HepG2 cell line | HT1080 cell line

LVPRRLRRRARRRK [C179]
not listed: SNU-46 cell line | A-427 cell line
≥ 2 fold: all other assays above

KKRKKRRKKRKVDP [C67]
not listed: monocytes | macrophages | HaCAT cells
≥ 2 fold: all other assays above

YRPRRKKATKKLKR [C284]
≥ 2 fold: macrophages

ARLRVILRRRNPKR [C93]
≥ 2 fold: HDF cell line | SNU-46 cell line | SH-SY5Y cells | monocytes | HaCAT cells

LMPSKIRRRKKRKK [C85]
≥ 2 fold: SNU-46 cell line | macrophages | HT1080 cell line | monocytes

KRRKLRIKRRIRVP [C208]
≥ 2 fold: HeLa cell line | SH-SY5Y cells

RPRRKKQIKRLCKR [C16]
not listed: monocytes | macrophages | HaCAT cells | HDF cell line
≥ 2 fold: all other assays above

RTRLLRRLRALKPR [C223]
≥ 2 fold: monocytes

YRPRRKKITKKLKR [C283]
≥ 2 fold: HeLa cell line | macrophages | monocytes

MPKIRKLKRRKKFR [C79]
≥ 2 fold: monocytes

TKRRKRRLRRRLTP [C52]
≥ 2 fold: HDF cell line | HeLa cell line | macrophages | SH-SY5Y cells | HepG2 cell line | HT1080 cell line

RPIRKLLRQARQRR [C131]
≥ 2 fold: monocytes
